Test results from patent US12616760B2 (priority 2020, dated 2026).
Square brackets hold non-standard residues; d marks the D form. * marks the point of attachment. Fmoc = O=C(OCC1c2ccccc2-c2ccccc21)*; Nle = CCCC[C@H](N)C(=O)O; azaGly = NNC(=O)O

Test: general procedure: Fmoc solid-phase peptide synthesis; 2-chlorotrityl chloride resin; DIC/HOBt
Conditions: whole synthesis

## Fmoc-D-Trp-His-D-Ser-Lys-ODmab
Analytical RP-HPLC, UV 214 nm, scale 0.32 mmol
  crude HPLC purity: approximately 70% purity

## Fmoc-His-AsG-Lys-D-Leu-Nle-OH
Analytical RP-HPLC, UV 214 nm
  crude LC-MS purity: approximately 70% purity

## Fmoc-[dW]H[dS]K[azaGly][Nle]-OH
Analytical RP-HPLC, UV 214 nm
  crude HPLC purity: purity ˜85%

## Fmoc-azaGly-D-Trp-His-D-Ser-Lys-ODmab
Analytical RP-HPLC, UV 214 nm
  crude HPLC purity: 50% purity

## cyclo(K[dL][Nle][dW]H[azaGly]) (SMILES CCCC[C@@H]1NC(=O)[C@@H](CC(C)C)NC(=O)[C@H](CCCCN)NC(=O)NNC(=O)[C@H](Cc2c[nH]cn2)NC(=O)[C@@H](Cc2c[nH]c3ccccc23)NC1=O)
  isolated yield: 4%
214 nm
  final HPLC purity: >99%
Scale 0.3 mmol
  isolated mass: 9.0 mg
